Results from the supplement of paper PMC10849652.
This is one part of the list.

Sequences of proteins named here, by UniProt entry; tags and fusion partners are left off. A change or cut given only in a name is not applied to a line headed by its entry.
UniProt Q7L8J4: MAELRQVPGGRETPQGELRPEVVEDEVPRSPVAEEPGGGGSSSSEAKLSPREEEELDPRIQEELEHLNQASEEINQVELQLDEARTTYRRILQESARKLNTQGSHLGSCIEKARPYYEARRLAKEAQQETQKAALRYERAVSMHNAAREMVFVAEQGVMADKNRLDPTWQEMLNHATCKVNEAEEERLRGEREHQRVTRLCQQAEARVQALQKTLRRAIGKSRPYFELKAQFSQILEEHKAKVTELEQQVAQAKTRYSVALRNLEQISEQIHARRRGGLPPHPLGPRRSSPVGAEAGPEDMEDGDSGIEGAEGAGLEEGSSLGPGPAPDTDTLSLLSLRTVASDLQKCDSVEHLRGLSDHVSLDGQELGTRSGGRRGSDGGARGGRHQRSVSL
UniProt Q15459: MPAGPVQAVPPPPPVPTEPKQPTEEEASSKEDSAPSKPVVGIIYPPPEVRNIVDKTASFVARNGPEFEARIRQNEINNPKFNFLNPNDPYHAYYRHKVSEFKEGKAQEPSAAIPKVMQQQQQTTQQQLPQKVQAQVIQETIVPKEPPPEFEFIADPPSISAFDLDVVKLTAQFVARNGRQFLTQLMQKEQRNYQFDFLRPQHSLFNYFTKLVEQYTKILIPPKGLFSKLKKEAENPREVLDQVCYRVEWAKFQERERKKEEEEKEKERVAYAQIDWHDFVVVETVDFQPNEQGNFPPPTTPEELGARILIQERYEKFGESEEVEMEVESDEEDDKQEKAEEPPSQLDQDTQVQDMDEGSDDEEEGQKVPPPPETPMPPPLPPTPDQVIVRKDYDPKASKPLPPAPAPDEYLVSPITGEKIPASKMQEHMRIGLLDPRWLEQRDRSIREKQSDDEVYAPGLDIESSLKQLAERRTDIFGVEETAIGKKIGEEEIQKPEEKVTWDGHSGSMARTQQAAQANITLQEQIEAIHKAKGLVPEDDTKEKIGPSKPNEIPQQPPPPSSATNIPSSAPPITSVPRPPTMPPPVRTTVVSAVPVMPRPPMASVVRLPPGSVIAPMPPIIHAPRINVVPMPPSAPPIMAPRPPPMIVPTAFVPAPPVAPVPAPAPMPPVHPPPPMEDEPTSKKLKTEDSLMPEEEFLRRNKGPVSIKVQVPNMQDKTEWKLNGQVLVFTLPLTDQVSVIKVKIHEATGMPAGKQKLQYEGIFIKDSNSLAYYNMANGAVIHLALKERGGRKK
UniProt Q96ES7: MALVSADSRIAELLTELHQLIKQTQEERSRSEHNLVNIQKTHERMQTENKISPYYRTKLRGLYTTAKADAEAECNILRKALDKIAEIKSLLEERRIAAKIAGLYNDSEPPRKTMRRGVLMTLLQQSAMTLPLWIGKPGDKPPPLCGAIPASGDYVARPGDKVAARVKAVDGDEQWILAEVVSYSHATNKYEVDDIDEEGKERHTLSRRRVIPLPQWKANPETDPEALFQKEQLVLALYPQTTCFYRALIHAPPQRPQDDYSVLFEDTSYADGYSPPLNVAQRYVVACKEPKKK
UniProt Q9Y3B4: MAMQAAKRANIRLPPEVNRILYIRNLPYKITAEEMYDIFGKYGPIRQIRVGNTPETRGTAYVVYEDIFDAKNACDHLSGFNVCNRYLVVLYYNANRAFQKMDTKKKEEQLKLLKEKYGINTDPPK
UniProt Q9C0C4, whole entry, looked up: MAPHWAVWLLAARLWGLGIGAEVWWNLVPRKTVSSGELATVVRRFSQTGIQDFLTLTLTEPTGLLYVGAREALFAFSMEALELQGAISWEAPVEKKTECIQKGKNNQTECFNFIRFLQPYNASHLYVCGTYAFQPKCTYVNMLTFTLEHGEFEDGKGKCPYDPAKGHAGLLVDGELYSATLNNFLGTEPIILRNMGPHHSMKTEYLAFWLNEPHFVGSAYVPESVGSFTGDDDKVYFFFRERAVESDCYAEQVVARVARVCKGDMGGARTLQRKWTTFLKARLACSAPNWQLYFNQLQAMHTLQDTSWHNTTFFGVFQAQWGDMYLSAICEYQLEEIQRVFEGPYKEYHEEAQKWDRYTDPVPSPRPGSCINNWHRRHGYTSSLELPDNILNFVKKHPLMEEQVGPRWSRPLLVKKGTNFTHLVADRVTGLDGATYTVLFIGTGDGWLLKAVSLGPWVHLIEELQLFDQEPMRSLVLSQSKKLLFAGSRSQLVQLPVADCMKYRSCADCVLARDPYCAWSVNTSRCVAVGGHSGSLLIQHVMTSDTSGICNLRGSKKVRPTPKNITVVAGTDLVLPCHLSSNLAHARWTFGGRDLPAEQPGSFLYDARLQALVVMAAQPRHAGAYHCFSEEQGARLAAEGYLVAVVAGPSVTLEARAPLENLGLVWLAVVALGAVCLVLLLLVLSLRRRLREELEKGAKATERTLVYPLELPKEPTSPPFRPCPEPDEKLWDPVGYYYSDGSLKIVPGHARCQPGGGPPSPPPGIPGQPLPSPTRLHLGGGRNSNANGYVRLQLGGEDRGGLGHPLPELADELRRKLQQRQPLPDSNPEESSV
UniProt O60613, whole entry, looked up: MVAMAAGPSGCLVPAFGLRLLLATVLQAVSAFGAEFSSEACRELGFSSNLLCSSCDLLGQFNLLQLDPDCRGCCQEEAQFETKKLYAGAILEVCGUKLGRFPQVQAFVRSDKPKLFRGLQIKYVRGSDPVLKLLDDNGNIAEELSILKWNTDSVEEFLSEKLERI
UniProt Q9H173: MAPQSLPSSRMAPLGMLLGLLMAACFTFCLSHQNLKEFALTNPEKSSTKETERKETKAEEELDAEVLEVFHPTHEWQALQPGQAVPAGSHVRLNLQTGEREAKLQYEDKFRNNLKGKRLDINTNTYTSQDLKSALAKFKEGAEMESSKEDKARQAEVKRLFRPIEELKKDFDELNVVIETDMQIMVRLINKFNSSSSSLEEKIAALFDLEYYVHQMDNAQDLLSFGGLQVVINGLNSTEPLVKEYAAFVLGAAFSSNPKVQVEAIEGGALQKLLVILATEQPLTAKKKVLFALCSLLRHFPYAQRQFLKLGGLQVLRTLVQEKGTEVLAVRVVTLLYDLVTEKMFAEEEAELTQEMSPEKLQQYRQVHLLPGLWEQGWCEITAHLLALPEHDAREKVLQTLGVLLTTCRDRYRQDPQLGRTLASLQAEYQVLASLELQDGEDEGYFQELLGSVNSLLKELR
UniProt Q9NXA8: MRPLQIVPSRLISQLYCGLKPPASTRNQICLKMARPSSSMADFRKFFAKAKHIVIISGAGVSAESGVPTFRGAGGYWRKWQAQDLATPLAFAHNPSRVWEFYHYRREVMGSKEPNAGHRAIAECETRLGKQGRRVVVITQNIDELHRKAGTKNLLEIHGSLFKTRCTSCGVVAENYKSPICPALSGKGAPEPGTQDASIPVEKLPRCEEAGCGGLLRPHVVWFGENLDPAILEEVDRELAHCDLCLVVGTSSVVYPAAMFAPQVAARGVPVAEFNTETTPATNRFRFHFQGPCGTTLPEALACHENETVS
UniProt Q13228: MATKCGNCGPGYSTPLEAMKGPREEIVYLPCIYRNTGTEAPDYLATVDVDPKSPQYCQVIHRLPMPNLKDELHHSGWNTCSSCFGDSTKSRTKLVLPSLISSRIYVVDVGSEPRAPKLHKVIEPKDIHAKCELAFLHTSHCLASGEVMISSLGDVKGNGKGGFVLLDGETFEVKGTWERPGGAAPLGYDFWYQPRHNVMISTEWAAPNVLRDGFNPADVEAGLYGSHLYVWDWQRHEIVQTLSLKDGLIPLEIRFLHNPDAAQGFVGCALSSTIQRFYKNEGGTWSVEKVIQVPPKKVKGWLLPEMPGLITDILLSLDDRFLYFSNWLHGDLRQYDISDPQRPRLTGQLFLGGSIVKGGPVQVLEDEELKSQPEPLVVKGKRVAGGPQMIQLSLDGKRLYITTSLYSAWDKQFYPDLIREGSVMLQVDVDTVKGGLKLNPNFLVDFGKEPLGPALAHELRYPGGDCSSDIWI
UniProt Q9BX95: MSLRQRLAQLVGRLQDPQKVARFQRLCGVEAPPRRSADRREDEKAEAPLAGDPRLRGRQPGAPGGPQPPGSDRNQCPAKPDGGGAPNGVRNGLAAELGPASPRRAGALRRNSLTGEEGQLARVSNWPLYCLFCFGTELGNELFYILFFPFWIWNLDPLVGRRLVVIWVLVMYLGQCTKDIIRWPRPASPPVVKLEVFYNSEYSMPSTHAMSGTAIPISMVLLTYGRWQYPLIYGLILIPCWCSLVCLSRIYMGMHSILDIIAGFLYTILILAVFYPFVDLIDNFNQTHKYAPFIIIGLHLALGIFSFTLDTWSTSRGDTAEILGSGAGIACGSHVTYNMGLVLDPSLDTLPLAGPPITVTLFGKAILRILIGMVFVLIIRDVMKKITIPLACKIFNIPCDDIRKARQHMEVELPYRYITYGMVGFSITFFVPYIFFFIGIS
UniProt P36955: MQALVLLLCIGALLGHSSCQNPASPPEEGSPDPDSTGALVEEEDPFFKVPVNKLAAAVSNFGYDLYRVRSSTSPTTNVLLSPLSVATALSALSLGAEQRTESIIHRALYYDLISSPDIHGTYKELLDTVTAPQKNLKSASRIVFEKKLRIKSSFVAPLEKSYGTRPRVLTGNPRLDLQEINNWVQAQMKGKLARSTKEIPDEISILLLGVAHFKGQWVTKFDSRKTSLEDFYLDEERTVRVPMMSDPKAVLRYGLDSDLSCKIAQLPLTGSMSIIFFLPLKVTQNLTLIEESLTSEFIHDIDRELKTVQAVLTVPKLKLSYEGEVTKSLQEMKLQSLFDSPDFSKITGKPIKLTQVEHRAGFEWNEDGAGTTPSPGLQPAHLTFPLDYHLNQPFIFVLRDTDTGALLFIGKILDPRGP
UniProt P34896: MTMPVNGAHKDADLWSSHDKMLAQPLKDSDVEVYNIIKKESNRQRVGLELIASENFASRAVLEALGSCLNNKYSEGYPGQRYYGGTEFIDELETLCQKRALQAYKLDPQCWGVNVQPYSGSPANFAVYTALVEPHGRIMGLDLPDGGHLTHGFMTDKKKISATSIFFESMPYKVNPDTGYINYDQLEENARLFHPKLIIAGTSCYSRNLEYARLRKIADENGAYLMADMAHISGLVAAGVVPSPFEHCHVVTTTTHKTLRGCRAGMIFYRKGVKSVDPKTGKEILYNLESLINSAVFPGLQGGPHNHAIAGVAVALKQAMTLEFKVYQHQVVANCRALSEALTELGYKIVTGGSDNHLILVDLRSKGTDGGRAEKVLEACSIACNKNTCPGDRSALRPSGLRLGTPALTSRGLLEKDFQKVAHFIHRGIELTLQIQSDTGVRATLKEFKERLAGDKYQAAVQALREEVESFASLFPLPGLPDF
UniProt Q99720, whole entry, looked up: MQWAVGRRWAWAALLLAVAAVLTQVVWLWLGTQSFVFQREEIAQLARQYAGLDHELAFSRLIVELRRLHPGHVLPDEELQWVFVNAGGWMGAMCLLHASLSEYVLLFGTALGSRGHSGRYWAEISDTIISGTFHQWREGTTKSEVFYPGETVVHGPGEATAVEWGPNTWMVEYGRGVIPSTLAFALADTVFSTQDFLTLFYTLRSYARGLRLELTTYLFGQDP
UniProt P60468, whole entry, looked up: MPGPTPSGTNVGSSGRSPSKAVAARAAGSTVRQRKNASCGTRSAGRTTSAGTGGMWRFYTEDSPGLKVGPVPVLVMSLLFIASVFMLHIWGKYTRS
UniProt Q9HD40: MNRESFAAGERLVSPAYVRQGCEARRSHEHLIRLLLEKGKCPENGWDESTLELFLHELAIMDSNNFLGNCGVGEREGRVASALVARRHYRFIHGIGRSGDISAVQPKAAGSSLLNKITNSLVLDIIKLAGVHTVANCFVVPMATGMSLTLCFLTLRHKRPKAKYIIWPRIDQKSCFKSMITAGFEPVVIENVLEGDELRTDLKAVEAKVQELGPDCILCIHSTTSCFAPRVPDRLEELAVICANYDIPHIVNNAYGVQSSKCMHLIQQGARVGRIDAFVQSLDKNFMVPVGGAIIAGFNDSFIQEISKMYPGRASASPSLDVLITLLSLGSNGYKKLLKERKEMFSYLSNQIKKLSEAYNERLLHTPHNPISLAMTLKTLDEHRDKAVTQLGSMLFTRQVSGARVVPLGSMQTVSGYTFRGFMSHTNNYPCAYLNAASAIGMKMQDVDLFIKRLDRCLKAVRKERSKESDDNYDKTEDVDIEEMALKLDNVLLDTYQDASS

Assays:
Assay in all cases: log2 fold change, soluble protein after heating vs DMSO (PISA); higher = thermal stabilisation; K562 cells, 10 uM, 30 min; active = over 0.2 and 3.5 SD of the protein, either way, in both replicates (recomputed)
saracatinib = compound: CN1CCN(CCOc2cc(OC3CCOCC3)c3c(Nc4c(Cl)ccc5c4OCO5)ncnc3c2)CC1 [saracatinib]
In short: (§1)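 For each measurement, 10 μM compound was applied for 30 min to K562 cells at 2×10^6 cells/mL. Aliquots were heated for 3 min across 48°C-58°C, pooled, and extracted in PBS with 0.5% NP-40 at 4°C; the supernatant after 21,000xg for 90 min was soluble protein. This was quantified by TMTpro 16plex LC-MS/MS with channel sums equalised, and thermal stability was reported relative to control samples from duplicates, on a log2 fold-change scale.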

sotrastaurin = compound: CN1CCN(c2nc(C3=C(c4c[nH]c5ccccc45)C(=O)NC3=O)c3ccccc3n2)CC1 [sotrastaurin]
In short: as §1

alvocidib = compound: CN1CC[C@H](c2c(O)cc(O)c3c(=O)cc(-c4ccccc4Cl)oc23)[C@H](O)C1 [alvocidib]
In short: as §1

Tubastatin A = compound: CN1CCc2c(c3ccccc3n2Cc2ccc(C(=O)NO)cc2)C1 [Tubastatin A]
In short: as §1

[1] = compound: CNC(=O)C1=CC=CC=C1NC2=NC(=NC=C2Cl)NC3=C(C=C(C=C3)N4CCOCC4)OC
In short: as §1

defactinib = compound: CNC(=O)c1ccc(Nc2ncc(C(F)(F)F)c(NCc3nccnc3N(C)S(C)(=O)=O)n2)cc1 [defactinib]
In short: as §1

rucaparib = compound: CNCc1ccc(-c2[nH]c3cc(F)cc4c3c2CCNC4=O)cc1 [rucaparib]
In short: as §1

[2] = compound: CNc1nc(-c2ccc3c(N)n[nH]c3c2)cc(N2C[C@@H](C(=O)NC3CCCCC3)CC[C@H]2C)n1
In short: as §1

encorafenib = compound: COC(=O)N[C@@H](C)CNc1nccc(-c2cn(C(C)C)nc2-c2cc(Cl)cc(NS(C)(=O)=O)c2F)n1 [encorafenib]
In short: as §1

[3] = compound: COC(=O)[C@H](CCSC)NC(=O)C1=C(C=C(C=C1)NC[C@H](CS)N)C2=CC=CC=C2
In short: as §1

[4] = compound: COC1=CC=C(C=C1)CN2C=CC3=C2C=C(C=C3)C(=O)NO
In short: as §1

filanesib = compound: CON(C)C(=O)N1N=C(c2cc(F)ccc2F)S[C@@]1(CCCN)c1ccccc1 [filanesib]
In short: as §1

zotarolimus = compound: CO[C@H]1C[C@@H]2CC[C@@H](C)[C@@](O)(O2)C(=O)C(=O)N2CCCC[C@H]2C(=O)O[C@H]([C@H](C)C[C@@H]2CC[C@H](n3cnnn3)[C@H](OC)C2)CC(=O)[C@H](C)/C=C(\C)[C@@H](O)[C@@H](OC)C(=O)[C@H](C)C[C@H](C)/C=C/C=C/C=C/1C [zotarolimus]
In short: as §1

idasanutlin = compound: COc1cc(C(=O)O)ccc1NC(=O)[C@@H]1N[C@@H](CC(C)(C)C)[C@](C#N)(c2ccc(Cl)cc2F)[C@H]1c1cccc(Cl)c1F [idasanutlin]
In short: as §1

alisertib = compound: COc1cc(Nc2ncc3c(n2)-c2ccc(Cl)cc2C(c2c(F)cccc2OC)=NC3)ccc1C(=O)O [alisertib]
In short: as §1

[5] = compound: COc1cc2nc(-c3cc(F)ccc3O)nc(N[C@@H]3CNC[C@H]3C(C)(C)O)c2cc1OC
In short: as §1

gefitinib = compound: COc1cc2ncnc(Nc3ccc(F)c(Cl)c3)c2cc1OCCCN1CCOCC1 [gefitinib]
In short: as §1

[6] = compound: COc1cccc2cc(-c3nc([C@H]4CC[C@H](C(=O)O)CC4)n4ncnc(N)c34)[nH]c12
In short: as §1

lapatinib = compound: CS(=O)(=O)CCNCc1ccc(-c2ccc3ncnc(Nc4ccc(OCc5cccc(F)c5)c(Cl)c4)c3c2)o1 [lapatinib]
In short: as §1

pictilisib = compound: CS(=O)(=O)N1CCN(Cc2cc3nc(-c4cccc5[nH]ncc45)nc(N4CCOCC4)c3s2)CC1 [pictilisib]
In short: as §1

Measured: log2 fold change

SH3BP5L (UniProt Q7L8J4)
inactive: saracatinib -0.01 | sotrastaurin -0.408 | alvocidib -0.01 | Tubastatin A 0.018 | [1] 0.016 | defactinib -0.064 | rucaparib 0 | [2] 0.152 | encorafenib 0.095 | [3] -0.001 | [4] 0.003 | filanesib 0.287 | zotarolimus -0.011 | idasanutlin 0.008 | alisertib -0.004 | [5] -0.112 | gefitinib 0.028 | [6] 0.008 | lapatinib 0.017 | pictilisib 0.039

SF3A1 (UniProt Q15459)
inactive: saracatinib -0.026 | sotrastaurin -0.058 | alvocidib -0.001 | Tubastatin A 0.011 | [1] 0.021 | defactinib 0.052 | rucaparib 0.034 | [2] -0.023 | encorafenib 0.043 | [3] -0.051 | [4] 0.003 | filanesib 0.061 | zotarolimus -0.009 | idasanutlin -0.005 | alisertib -0.065 | [5] 0.054 | gefitinib 0.021 | [6] -0.034 | lapatinib 0.011 | pictilisib -0.042

SGF29 (UniProt Q96ES7)
inactive: saracatinib 0.045 | sotrastaurin 0.013 | alvocidib -0.022 | Tubastatin A 0.012 | [1] -0.023 | defactinib -0.094 | rucaparib 0.015 | [2] -0.057 | encorafenib 0.029 | [3] -0.013 | [4] -0.033 | filanesib 0 | zotarolimus -0.024 | idasanutlin 0.014 | alisertib -0.113 | [5] 0.014 | gefitinib 0.002 | [6] 0.038 | lapatinib 0.033 | pictilisib 0.003

SF3B6 (UniProt Q9Y3B4)
inactive: saracatinib -0.036 | sotrastaurin 0 | alvocidib -0.046 | Tubastatin A 0.133 | [1] -0.035 | defactinib -0.09 | rucaparib 0.119 | [2] 0.008 | encorafenib 0.066 | [3] 0.043 | [4] -0.022 | filanesib 0.01 | zotarolimus -0.017 | idasanutlin 0.034 | alisertib -0.07 | [5] -0.043 | gefitinib -0.027 | [6] 0.017 | lapatinib 0.073 | pictilisib 0.028

SEMA4C (UniProt Q9C0C4)
inactive: saracatinib 0.073 | sotrastaurin 0.016 | alvocidib -0.042 | Tubastatin A 0.021 | [1] -0.016 | defactinib -0.013 | rucaparib 0.014 | [2] 0.026 | encorafenib -0.064 | [3] 0.024 | [4] -0.011 | filanesib 0.042 | zotarolimus -0.045 | idasanutlin 0.028 | alisertib -0.041 | [5] 0.018 | gefitinib 0.017 | [6] 0.092 | lapatinib 0.006 | pictilisib 0.074

SELENOF (UniProt O60613)
inactive: saracatinib -0.075 | sotrastaurin -0.012 | alvocidib -0.013 | Tubastatin A -0.02 | [1] 0.001 | defactinib -0.007 | rucaparib -0.031 | [2] -0.061 | encorafenib 0.051 | [3] -0.047 | [4] 0.015 | filanesib 0.025 | zotarolimus 0.022 | idasanutlin 0 | alisertib -0.054 | [5] 0.013 | gefitinib 0.006 | [6] -0.007 | lapatinib -0.03 | pictilisib 0.014

SIL1 (UniProt Q9H173)
inactive: saracatinib -0.012 | sotrastaurin -0.026 | alvocidib 0.05 | Tubastatin A 0.049 | [1] 0.013 | defactinib -0.069 | rucaparib 0.04 | [2] -0.021 | encorafenib 0.071 | [3] 0.037 | [4] -0.092 | filanesib 0.071 | zotarolimus -0.01 | idasanutlin 0.013 | alisertib -0.066 | [5] -0.051 | gefitinib 0.005 | [6] -0.034 | lapatinib 0.075 | pictilisib -0.001

SIRT5 (UniProt Q9NXA8)
inactive: saracatinib 0.051 | sotrastaurin -0.068 | alvocidib 0.021 | Tubastatin A -0.002 | [1] -0.015 | defactinib -0.043 | rucaparib 0.041 | [2] 0.009 | encorafenib -0.115 | [3] -0.083 | [4] 0.225 | filanesib -0.049 | zotarolimus 0.072 | idasanutlin -0.063 | alisertib -0.02 | [5] 0.053 | gefitinib 0.06 | [6] -0.05 | lapatinib -0.02 | pictilisib 0.063

SELENBP1 isoform 4 (UniProt Q13228)
inactive: saracatinib 0.082 | sotrastaurin -0.003 | alvocidib 0.013 | Tubastatin A -0.032 | [1] -0.062 | defactinib -0.016 | rucaparib -0.02 | [2] -0.04 | encorafenib -0.025 | [3] 0.052 | [4] 0.112 | filanesib -0.071 | zotarolimus 0.008 | idasanutlin -0.012 | alisertib -0.082 | [5] -0.017 | gefitinib -0.008 | [6] 0.041 | lapatinib -0.012 | pictilisib -0.006

SGPP1 (UniProt Q9BX95)
inactive: saracatinib 0.115 | sotrastaurin -0.011 | alvocidib -0.05 | Tubastatin A -0.01 | [1] 0.049 | defactinib 0.004 | rucaparib -0.142 | [2] -0.082 | encorafenib 0 | [3] 0.046 | [4] -0.004 | filanesib -0.246 | zotarolimus -0.101 | idasanutlin -0.069 | alisertib 0.167 | [5] -0.276 | gefitinib 0.052 | [6] 0.151 | lapatinib 0.09 | pictilisib 0.04

SERPINF1 (UniProt P36955)
inactive: saracatinib 0.023 | sotrastaurin 0.197 | alvocidib -0.021 | Tubastatin A -0.015 | [1] 0.133 | defactinib -0.026 | rucaparib -0.033 | [2] -0.111 | encorafenib -0.164 | [3] 0.058 | [4] -0.097 | filanesib 0.205 | zotarolimus -0.221 | idasanutlin 0.147 | alisertib 0.126 | [5] -0.062 | gefitinib 0.039 | [6] 0.016 | lapatinib 0.072 | pictilisib -0.077

SHMT1 (UniProt P34896)
inactive: saracatinib 0.042 | sotrastaurin -0.01 | alvocidib -0.013 | Tubastatin A -0.011 | [1] -0.028 | defactinib -0.026 | rucaparib -0.045 | [2] -0.005 | encorafenib 0.003 | [3] -0.052 | [4] 0.048 | filanesib -0.088 | zotarolimus 0.006 | idasanutlin -0.031 | alisertib -0.105 | [5] 0.038 | gefitinib 0 | [6] 0.041 | lapatinib 0.014 | pictilisib 0.069

SIGMAR1 (UniProt Q99720)
inactive: saracatinib 0.08 | sotrastaurin -0.008 | alvocidib -0.007 | Tubastatin A -0.028 | [1] -0.034 | defactinib 0.035 | rucaparib -0.07 | [2] -0.057 | encorafenib -0.001 | [3] 0.106 | [4] -0.031 | filanesib -0.005 | zotarolimus -0.048 | idasanutlin -0.059 | alisertib -0.149 | [5] -0.099 | gefitinib 0.01 | [6] 0.089 | lapatinib -0.055 | pictilisib -0.012

Four neighbouring records already listed, for reference:
SGPP1 (UniProt Q9BX95)
inactive: saracatinib 0.115 | sotrastaurin -0.011 | alvocidib -0.05 | Tubastatin A -0.01 | [1] 0.049 | defactinib 0.004 | rucaparib -0.142 | [2] -0.082 | encorafenib 0 | [3] 0.046 | [4] -0.004 | filanesib -0.246 | zotarolimus -0.101 | idasanutlin -0.069 | alisertib 0.167 | [5] -0.276 | gefitinib 0.052 | [6] 0.151 | lapatinib 0.09 | pictilisib 0.04

SERPINF1 (UniProt P36955)
inactive: saracatinib 0.023 | sotrastaurin 0.197 | alvocidib -0.021 | Tubastatin A -0.015 | [1] 0.133 | defactinib -0.026 | rucaparib -0.033 | [2] -0.111 | encorafenib -0.164 | [3] 0.058 | [4] -0.097 | filanesib 0.205 | zotarolimus -0.221 | idasanutlin 0.147 | alisertib 0.126 | [5] -0.062 | gefitinib 0.039 | [6] 0.016 | lapatinib 0.072 | pictilisib -0.077

SHMT1 (UniProt P34896)
inactive: saracatinib 0.042 | sotrastaurin -0.01 | alvocidib -0.013 | Tubastatin A -0.011 | [1] -0.028 | defactinib -0.026 | rucaparib -0.045 | [2] -0.005 | encorafenib 0.003 | [3] -0.052 | [4] 0.048 | filanesib -0.088 | zotarolimus 0.006 | idasanutlin -0.031 | alisertib -0.105 | [5] 0.038 | gefitinib 0 | [6] 0.041 | lapatinib 0.014 | pictilisib 0.069

SIGMAR1 (UniProt Q99720)
inactive: saracatinib 0.08 | sotrastaurin -0.008 | alvocidib -0.007 | Tubastatin A -0.028 | [1] -0.034 | defactinib 0.035 | rucaparib -0.07 | [2] -0.057 | encorafenib -0.001 | [3] 0.106 | [4] -0.031 | filanesib -0.005 | zotarolimus -0.048 | idasanutlin -0.059 | alisertib -0.149 | [5] -0.099 | gefitinib 0.01 | [6] 0.089 | lapatinib -0.055 | pictilisib -0.012

Next part:

SEC61B (UniProt P60468)
inactive: saracatinib 0.017 | sotrastaurin 0.066 | alvocidib 0.051 | Tubastatin A -0.045 | [1] 0.04 | defactinib 0.006 | rucaparib 0.014 | [2] -0.032 | encorafenib -0.01 | [3] 0.027 | [4] -0.17 | filanesib -0.029 | zotarolimus -0.054 | idasanutlin 0.021 | alisertib -0.011 | [5] -0.005 | gefitinib 0.026 | [6] 0.063 | lapatinib -0.026 | pictilisib -0.056

SLAIN2 (UniProt Q9P270)
inactive: saracatinib -0.03 | sotrastaurin 0.023 | alvocidib -0.027 | Tubastatin A 0.037 | [1] -0.003 | defactinib 0.03 | rucaparib 0.024 | [2] -0.03 | encorafenib -0.011 | [3] 0.064 | [4] 0.125 | filanesib 0.002 | zotarolimus -0.029 | idasanutlin 0.119 | alisertib -0.061 | [5] -0.082 | gefitinib 0.062 | [6] 0.03 | lapatinib 0.029 | pictilisib -0.026

SEPSECS (UniProt Q9HD40)
inactive: saracatinib 0.133 | sotrastaurin 0.039 | alvocidib 0 | Tubastatin A 0.006 | [1] -0.023 | defactinib -0.005 | rucaparib -0.015 | [2] 0.01 | encorafenib -0.046 | [3] -0.03 | [4] 0.039 | filanesib -0.055 | zotarolimus 0.016 | idasanutlin -0.039 | alisertib 0.794 | [5] -0.052 | gefitinib 0.016 | [6] 0.023 | lapatinib 0.018 | pictilisib 0.078
